Literature values as cited in paper PMC10859675, “Short‐chain mono‐carboxylates as negative modulators of allosteric transitions in Gloeobacter violaceus ligand‐gated ion channel, and impact of a pre‐β5 strand (Loop Ω) double mutation on crotonate, not butyrate effect” (Physiological Reports, 2024).

System: GLIC ECD carboxylate‐binding pockets
Conditions: cited from earlier work
[1] = co-crystal structures, ref Fourati et al. ([2020])
[2] = co-crystal structure 3eam 4hfi, ref Bocquet et al. ([2009]) and Sauguet et al. ([2013])

| SMILES | Presence in Inter‐SU pocket [1] | Presence in Intra‐SU pocket [1] | Presence in Inter‐SU pocket [2] | Presence in Intra‐SU pocket [2] |
| --- | --- | --- | --- | --- |
| O=C(O)/C=C/C(=O)O [FUMAR, (E)‐but‐2‐enedioic acid] | ✓ | 0 |  |  |
| O=C(O)CCC(=O)O [SUCCIN, Butanedioic acid] | ✓ | ✓ |  |  |
| O=C(O)CCCC(=O)O [GLUTAR, Pentanedioic acid] | ✓ | 0 |  |  |
| O=C(O)CC(=O)O [MALON, Propanedioic acid] | ✓ | 0 |  |  |
| CC(=O)O [ACET, Ethanoic acid] |  |  | ✓ | ✓ |
| CCC(=O)O [PROPION, Propanoic acid] | ✓ | ✓ |  |  |
| C/C=C/C(=O)O [CROTON, Butenoic acid] | ✓ | 0 |  |  |

Where two headings read alike, the source gives them in different places.
